# Assay results taken from publication PMC11110238, “Synthesis of novel carbazole hydrazine-carbothioamide scaffold as potent antioxidant, anticancer and antimicrobial agents” (BMC Chemistry, 2024).
# System: Candida albicans
# Experiment: MIC and MBC test, C. albicans
# Assay type: cell-based
# Protocol: Using Muller Hinton agar medium, the antibacterial activity was evaluated by using 24 h cultures of Escherichia coli, Staphylococcus aureus, and Candida albicans. E. coli and S. aureus were incubated in 1% Mueller Hinton Broth (MHB) liquid medium at 37 °C for 24 h; C. albicans was incubated in Sabouraud Dextrose Broth (SDB) at 30 °C for 48 h. MIC (Minimum Inhibitory Concentration) and MBC (Minimum Bactericidal Concentration) tests were performed to determine antimicrobial activity. This stage was carried out in a sterile cabinet.
# The density of microorganisms in fresh cultures was adjusted according to the MacFarland 0.5 scale. For that, the microorganisms were centrifuged at 4000 rpm for 20 min. The supernatant was poured off, and the pellet was washed with 1 mL of 0.9% NaCl solution (physiological saline). The centrifugation was then repeated. The pellet was dissolved again with saline solution and adjusted to 0.5 MacFarland. In the experiment performed in a sterile 96-well plate, compound 4o was diluted ½ with DMSO to prepare a stock solution. […]
# After incubation, 10 µl of the sample was taken, dropped onto the respective media, and incubated for 24 h at appropriate temperatures to clearly distinguish the residues left by the compound 4o and the growth of microorganisms. […] After incubation, MIC and MBC values were determined. […]
smiles,measurement,value
"OC(Cn1cncn1)(Cn1cncn1)c1ccc(F)cc1F [fluconazole, reference compound]",MIC,1.63 µM
